Test results as given in US20050214387A1, “Low-dose potassium supplementation for the prevention and treatment of hypertension” (priority 2002, published 2005).
For part of these data: The amount applied is not stated for every result.

Tests used:
[1] = Low-dose potassium trial: body mass index; format: in vivo, human; conditions: within potassium group, n = 30, mean ± SEM
[2] = system: apparently healthy volunteers; assay: Low-dose potassium trial: heart rate; format: in vivo, human; conditions: n = 30, mean ± SEM

Compound: [Cl-].[K+] [Potassium, potassium chloride]
- BMI Week 6 − Week 0 mean difference [1]: 0.03 ± 0.07 kg/m^2
- Heart rate Week 3 [2]: 66.07 ± 1.54 beats/min
- Heart rate Week 6 [2]: 66.77 ± 1.35 beats/min
- Heart rate Week 3 − Week 0 mean difference ([2]; within potassium group): −0.50 ± 0.99 beats/min
- Heart rate Week 6 − Week 0 mean difference ([2]; within potassium group): 0.20 ± 0.85 beats/min
- Heart rate Week 6 − Week 3 mean difference ([2]; within potassium group): 0.70 ± 0.98 beats/min
